Where “and” joins values, the source holds several entries; their conditions need not be identical. Equal values may be shown once.
Experiment: DNP enhanced 13C-CPMAS NMR experiments (1H polarization enhancement by microwave irradiation)
[1] = field sweep at 5 T / 140 GHz (FIG. 3)

1-(2,2,6,6-tetramethyl-1-oxy-4-piperidinyl)oxy-3-(2,2,6,6-tetramethyl-1-oxy-4-piperidinyl)amino-propan-2-ol [TOTAPOL]
1H enhancement (enhancement factor for the 1H polarization) (5 mM TOTAPOL, 2 M 13C-urea in d6-DMSO/D2O/H2O (60:34:6 w/w), 90 K, 5 T, 3.5 kHz MAS, measured via 13C CP signal): ~165±20 and ~165
DNP enhancement of 13C-NMR spectrum of proline (150 mM proline, 5 mM TOTAPOL, d8-glycerol/D2O/H2O (60:32:8 w/w), 18 s microwave irradiation, 4.8 kHz MAS, 90 K, 5 T): 160
maximum enhancement in field dependence of DNP enhancement [1]: 165
minimum enhancement in field dependence of DNP enhancement [1]: −140
